Experimental findings from patent US6068838A, “Purified multimerase” (Baxter Aktiengesellschaft, priority 1996, dated 2000) are described below.

In this data set the test system is vWF. In words: pH optimum of vWF degradation by the activated protease. In kind it is biochemical, human.

On to “protease: von Willebrand factor cleaving protease purified from human plasma, named multimerase; converts singlet vWF to satellite structure”, for which, for the setting “barium-activated protease (10 mM barium chloride)”, the “pH of highest activity” value was around 8 pH. Where the note is “calcium-activated protease (10 mM calcium chloride)”, the “pH optimum for vWF degradation” value fell in the range of 9 to 10 pH.
